Record: PubChem BioAssay AID1259405 (NCATS, 2018)

Purpose: 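Silenced genes that increase secreted GFP made by CHO cells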 (primary screen)
Cells: Chinese hamster CHO-K1 ovary cells with stable secreted eGFP expression
Reagents: single siRNA against mouse genes, 0.8 pmol siRNA per well (2 µl of 400 nM stock)
Time to read-out: 3 days
Measured: 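Percent of the per-plate non-targeting control median for intracellular GFP per well by laser scanning cytometry and for cell viability by ATP luminescence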
Scale: GFP, % of control: higher = more GFP per well, higher productivity; viability (ATP), % of control: higher = more viable cells (more ATP)
Hit rule: 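a knock-down is called active if GFP reaches 120% or more of non-targeting control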
Shown is a random part of about 50,000 deposited reagents. In the full data, about 4,000 (8%) were called active. 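Mouse siRNA library applied to hamster cells; one well for each siRNA.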 No sequences are given here.

For Panx3 (pannexin 3) [SID363554724] the deposit lists GFP, % of control 20.1; viability (ATP), % of control 31.7; inactive.
Panx3 (pannexin 3) [SID363568171] gave GFP, % of control 76.6; viability (ATP), % of control 89.3; inactive.
With knock-down of Panx3 (pannexin 3) [SID363586230], the record shows GFP, % of control 66.7; viability (ATP), % of control 60.8; inactive.
Knock-down of Or14c43 (olfactory receptor family 14 subfamily C member 43) [SID363544540] resulted in: GFP, % of control 81.3; viability (ATP), % of control 50.4; inactive.
For Or14c43 (olfactory receptor family 14 subfamily C member 43) [SID363550868], the values are GFP, % of control 46.4; viability (ATP), % of control 30.8; inactive.
For Or14c43 (olfactory receptor family 14 subfamily C member 43) [SID363557417] the deposit lists GFP, % of control 56.6; viability (ATP), % of control 70.6; inactive.
Tas2r131 (taste receptor, type 2, member 131) [SID363556262] showed GFP, % of control 74.6; viability (ATP), % of control 81.8; inactive.
For Tas2r131 (taste receptor, type 2, member 131) [SID363586712], the values are GFP, % of control 92.8; viability (ATP), % of control 55.1; inactive.
Knock-down of Tas2r131 (taste receptor, type 2, member 131) [SID363588820] resulted in: GFP, % of control 87.7; viability (ATP), % of control 53.6; inactive.
Silencing of Tmem108 (transmembrane protein 108) [SID363546679] came out at: GFP, % of control 124; viability (ATP), % of control 102; active.
Tmem108 (transmembrane protein 108) [SID363548435] scored GFP, % of control 46.9; viability (ATP), % of control 62.9; inactive.
With knock-down of Tmem108 (transmembrane protein 108) [SID363560613], the record shows GFP, % of control 65.2; viability (ATP), % of control 57; inactive.
After knock-down of Uso1 (USO1 vesicle docking factor) [SID363553774], the record shows GFP, % of control 65.9; viability (ATP), % of control 59.8; inactive.
Against Uso1 (USO1 vesicle docking factor) [SID363561731], the entry reads GFP, % of control 117; viability (ATP), % of control 84.5; inactive.
Uso1 (USO1 vesicle docking factor) [SID363565469] showed GFP, % of control 50.1; viability (ATP), % of control 62.6; inactive.
For Zswim3 (zinc finger SWIM-type containing 3) [SID363556760], the entry reads GFP, % of control 151; viability (ATP), % of control 79.1; active.
Against Zswim3 (zinc finger SWIM-type containing 3) [SID363563664] the deposit lists GFP, % of control 18; viability (ATP), % of control 53.1; inactive.
Zswim3 (zinc finger SWIM-type containing 3) [SID363587210] scored GFP, % of control 61; viability (ATP), % of control 83.3; inactive.
Silencing of Zswim3 (zinc finger SWIM-type containing 3) [SID363589801] resulted in: GFP, % of control 104; viability (ATP), % of control 82.4; inactive.
After knock-down of Zswim3 (zinc finger SWIM-type containing 3) [SID363589802], the record shows GFP, % of control 106; viability (ATP), % of control 91.1; inactive.
Zswim3 (zinc finger SWIM-type containing 3) [SID363589803] showed GFP, % of control 133; viability (ATP), % of control 87.5; active.
